For two substances, binding results are on record in publication PMC11074156.

Chains of the proteins cited; added tags and fusions are not shown. Lines headed by an entry give the natural chain unless they say otherwise; changes in a name come on top. A line that says so, or that is headed by a name, gives the form on record, which may keep a tag or linker. Residues count along the entry.
UniProt P11021: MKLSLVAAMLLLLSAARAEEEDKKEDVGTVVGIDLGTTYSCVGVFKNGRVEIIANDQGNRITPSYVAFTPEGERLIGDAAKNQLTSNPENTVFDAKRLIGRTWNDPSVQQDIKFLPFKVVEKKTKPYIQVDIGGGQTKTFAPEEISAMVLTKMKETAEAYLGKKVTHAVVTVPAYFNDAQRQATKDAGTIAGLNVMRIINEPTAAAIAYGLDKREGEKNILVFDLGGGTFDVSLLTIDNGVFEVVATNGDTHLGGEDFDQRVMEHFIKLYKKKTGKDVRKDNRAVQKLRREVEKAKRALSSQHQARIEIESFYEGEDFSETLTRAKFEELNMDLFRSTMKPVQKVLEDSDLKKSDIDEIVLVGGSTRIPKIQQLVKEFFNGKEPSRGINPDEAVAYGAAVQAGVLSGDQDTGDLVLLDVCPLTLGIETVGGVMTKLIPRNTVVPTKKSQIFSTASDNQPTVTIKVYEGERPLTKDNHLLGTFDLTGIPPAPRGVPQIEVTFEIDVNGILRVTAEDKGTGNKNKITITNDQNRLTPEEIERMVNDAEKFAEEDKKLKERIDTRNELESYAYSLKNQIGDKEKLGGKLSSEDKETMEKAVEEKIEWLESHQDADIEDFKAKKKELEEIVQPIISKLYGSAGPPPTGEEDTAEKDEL
EGFP-full length GRP78 (wild type): residues 19-654 of P11021
EGFP-NBD (GRP78 nucleotide binding domain with the hydrophobic linker): residues 19-419 of P11021
EGFP-SBD (GRP78 substrate binding domain): residues 420-654 of P11021
EGFP-full length GRP78 T518A (P11021, form named): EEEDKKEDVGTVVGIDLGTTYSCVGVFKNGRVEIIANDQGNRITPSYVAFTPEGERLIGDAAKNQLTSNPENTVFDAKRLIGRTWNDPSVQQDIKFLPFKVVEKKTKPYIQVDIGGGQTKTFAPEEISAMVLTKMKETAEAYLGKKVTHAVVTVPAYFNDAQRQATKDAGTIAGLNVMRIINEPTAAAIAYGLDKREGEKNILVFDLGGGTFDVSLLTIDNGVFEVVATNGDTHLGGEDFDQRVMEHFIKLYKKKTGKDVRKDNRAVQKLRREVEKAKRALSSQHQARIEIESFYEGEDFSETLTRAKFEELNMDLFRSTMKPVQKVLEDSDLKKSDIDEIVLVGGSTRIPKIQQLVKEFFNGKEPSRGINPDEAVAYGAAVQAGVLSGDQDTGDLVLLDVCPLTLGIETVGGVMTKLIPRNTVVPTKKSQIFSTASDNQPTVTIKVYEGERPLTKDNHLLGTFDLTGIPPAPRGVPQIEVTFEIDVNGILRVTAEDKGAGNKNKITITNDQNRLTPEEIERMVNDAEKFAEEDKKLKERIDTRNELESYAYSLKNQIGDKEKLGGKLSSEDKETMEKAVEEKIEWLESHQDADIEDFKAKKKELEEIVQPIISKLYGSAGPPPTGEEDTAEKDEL
EGFP-full length GRP78 R470E (P11021, form named): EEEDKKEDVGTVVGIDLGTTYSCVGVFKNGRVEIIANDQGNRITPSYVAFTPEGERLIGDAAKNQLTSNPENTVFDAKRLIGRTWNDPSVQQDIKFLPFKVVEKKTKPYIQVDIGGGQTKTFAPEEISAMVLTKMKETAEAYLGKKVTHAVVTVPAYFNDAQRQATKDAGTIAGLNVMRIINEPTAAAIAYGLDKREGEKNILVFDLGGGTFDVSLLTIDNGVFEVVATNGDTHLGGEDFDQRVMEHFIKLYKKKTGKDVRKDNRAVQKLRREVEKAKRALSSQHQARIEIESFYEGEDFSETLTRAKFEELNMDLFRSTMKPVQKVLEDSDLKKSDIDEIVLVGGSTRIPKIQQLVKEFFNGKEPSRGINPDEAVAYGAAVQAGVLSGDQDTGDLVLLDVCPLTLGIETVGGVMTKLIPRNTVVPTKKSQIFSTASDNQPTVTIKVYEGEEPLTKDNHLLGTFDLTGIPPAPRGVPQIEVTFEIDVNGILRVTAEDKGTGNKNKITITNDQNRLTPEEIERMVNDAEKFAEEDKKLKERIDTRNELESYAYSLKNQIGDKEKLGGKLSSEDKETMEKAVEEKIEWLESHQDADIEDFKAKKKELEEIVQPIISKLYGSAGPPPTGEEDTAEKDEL
EGFP-full length GRP78 K585A (P11021, form named): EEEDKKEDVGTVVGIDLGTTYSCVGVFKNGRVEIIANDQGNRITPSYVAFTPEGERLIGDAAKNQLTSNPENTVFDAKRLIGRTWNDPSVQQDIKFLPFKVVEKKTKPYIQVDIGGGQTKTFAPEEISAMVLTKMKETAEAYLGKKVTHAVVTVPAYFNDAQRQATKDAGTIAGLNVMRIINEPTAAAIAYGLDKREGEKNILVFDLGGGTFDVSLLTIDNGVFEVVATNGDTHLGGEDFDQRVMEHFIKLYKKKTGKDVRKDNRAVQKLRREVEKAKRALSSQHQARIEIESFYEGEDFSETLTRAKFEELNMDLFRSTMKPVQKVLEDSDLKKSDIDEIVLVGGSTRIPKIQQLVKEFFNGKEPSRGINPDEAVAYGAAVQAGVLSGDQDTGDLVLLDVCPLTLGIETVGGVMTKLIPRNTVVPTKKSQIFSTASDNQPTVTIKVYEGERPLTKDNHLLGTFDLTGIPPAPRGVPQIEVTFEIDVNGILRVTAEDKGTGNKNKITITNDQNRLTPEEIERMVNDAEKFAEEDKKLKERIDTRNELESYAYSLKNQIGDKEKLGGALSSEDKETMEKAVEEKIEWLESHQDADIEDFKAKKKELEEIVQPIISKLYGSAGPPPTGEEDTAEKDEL
EGFP-full length GRP78 R492E (P11021, form named): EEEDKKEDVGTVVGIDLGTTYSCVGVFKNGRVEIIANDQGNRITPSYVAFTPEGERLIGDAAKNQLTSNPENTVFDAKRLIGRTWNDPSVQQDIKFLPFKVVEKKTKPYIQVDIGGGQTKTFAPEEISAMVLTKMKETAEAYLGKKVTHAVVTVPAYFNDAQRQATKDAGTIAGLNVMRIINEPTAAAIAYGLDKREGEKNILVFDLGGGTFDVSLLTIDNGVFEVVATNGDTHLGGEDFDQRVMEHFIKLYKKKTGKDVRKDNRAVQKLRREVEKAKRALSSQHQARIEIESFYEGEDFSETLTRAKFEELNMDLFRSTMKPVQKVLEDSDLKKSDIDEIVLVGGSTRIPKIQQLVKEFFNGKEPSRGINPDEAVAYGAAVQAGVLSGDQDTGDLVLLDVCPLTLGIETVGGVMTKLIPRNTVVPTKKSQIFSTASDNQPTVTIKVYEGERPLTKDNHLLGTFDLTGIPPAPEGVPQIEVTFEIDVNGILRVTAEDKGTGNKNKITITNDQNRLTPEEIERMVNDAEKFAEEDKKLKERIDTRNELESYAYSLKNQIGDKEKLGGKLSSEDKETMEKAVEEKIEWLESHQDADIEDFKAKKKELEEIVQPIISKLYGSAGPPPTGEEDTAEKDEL
EGFP-full length GRP78 K621A (P11021, form named): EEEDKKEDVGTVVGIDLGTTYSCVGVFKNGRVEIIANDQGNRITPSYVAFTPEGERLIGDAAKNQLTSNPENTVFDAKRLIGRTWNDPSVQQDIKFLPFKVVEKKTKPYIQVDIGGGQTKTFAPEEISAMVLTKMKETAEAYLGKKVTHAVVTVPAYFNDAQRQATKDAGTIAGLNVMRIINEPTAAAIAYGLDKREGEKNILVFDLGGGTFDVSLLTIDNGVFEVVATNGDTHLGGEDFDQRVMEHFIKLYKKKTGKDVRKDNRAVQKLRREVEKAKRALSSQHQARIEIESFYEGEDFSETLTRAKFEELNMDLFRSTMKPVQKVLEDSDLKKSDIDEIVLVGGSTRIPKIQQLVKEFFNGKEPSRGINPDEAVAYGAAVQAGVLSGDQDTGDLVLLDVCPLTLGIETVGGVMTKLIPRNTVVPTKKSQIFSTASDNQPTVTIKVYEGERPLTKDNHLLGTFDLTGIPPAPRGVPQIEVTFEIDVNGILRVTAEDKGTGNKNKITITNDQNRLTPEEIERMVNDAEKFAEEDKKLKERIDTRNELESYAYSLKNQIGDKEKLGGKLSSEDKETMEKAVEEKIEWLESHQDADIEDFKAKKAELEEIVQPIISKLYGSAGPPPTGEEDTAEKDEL
EGFP-full length GRP78 V429Q (P11021, form named): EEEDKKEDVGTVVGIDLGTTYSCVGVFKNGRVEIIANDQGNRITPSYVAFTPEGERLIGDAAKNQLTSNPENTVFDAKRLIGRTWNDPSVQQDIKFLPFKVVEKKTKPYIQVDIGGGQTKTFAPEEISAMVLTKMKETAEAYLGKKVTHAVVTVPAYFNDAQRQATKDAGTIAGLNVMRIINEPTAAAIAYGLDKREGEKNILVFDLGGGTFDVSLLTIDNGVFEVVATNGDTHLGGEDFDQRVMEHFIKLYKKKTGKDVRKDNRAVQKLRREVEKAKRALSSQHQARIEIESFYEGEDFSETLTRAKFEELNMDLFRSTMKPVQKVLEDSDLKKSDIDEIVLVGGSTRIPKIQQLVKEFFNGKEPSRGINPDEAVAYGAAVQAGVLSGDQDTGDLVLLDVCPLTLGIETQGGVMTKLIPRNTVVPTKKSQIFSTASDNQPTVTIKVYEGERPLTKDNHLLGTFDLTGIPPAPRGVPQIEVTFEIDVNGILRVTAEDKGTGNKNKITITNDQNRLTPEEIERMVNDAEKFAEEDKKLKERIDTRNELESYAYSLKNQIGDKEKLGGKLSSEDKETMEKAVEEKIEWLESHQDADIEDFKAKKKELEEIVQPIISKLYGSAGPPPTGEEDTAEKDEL
EGFP-full length GRP78 H477E (P11021, form named): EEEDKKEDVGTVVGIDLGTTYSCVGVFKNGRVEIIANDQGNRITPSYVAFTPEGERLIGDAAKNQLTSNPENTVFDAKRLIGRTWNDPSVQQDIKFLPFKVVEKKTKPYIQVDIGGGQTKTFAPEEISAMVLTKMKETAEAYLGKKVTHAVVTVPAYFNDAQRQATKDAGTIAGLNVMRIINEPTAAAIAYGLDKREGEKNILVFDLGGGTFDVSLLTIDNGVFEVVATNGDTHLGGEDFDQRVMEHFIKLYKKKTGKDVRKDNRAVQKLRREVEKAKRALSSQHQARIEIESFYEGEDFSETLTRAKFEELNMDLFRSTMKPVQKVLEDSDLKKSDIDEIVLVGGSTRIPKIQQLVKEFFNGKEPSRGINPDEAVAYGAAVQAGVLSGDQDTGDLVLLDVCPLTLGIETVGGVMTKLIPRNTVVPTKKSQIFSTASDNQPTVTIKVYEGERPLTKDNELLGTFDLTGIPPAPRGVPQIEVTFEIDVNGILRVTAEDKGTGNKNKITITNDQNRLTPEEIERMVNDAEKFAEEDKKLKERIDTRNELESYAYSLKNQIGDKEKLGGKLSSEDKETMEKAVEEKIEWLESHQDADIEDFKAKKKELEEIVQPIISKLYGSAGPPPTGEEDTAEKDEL
UniProt P18850: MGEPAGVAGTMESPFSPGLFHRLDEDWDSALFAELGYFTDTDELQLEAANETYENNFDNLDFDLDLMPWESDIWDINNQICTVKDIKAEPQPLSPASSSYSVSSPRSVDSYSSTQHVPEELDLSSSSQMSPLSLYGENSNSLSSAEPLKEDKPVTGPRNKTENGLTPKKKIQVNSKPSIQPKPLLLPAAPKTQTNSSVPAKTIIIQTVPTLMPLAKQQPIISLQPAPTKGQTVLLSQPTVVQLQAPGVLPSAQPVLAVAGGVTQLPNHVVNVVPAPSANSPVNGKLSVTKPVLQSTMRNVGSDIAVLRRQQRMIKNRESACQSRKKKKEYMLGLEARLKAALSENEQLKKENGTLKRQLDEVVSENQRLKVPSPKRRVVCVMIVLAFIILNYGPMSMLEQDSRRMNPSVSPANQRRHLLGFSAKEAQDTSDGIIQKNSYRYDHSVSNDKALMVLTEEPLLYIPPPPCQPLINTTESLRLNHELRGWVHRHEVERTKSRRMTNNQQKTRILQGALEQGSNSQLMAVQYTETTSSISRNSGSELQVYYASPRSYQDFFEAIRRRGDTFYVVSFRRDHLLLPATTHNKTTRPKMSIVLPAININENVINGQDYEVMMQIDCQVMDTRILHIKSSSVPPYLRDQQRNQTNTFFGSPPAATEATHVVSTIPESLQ
UniProt A0A142I5B9, residues 795-1146: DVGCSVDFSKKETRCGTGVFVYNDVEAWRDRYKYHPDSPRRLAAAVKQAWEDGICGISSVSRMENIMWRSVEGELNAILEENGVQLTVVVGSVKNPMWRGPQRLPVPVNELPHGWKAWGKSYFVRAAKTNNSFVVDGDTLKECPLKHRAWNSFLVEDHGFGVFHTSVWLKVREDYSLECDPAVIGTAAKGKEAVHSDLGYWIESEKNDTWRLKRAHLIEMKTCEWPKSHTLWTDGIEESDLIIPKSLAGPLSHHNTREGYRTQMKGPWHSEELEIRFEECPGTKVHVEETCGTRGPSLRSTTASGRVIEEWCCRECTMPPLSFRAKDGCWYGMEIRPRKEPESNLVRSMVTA

These are yes or no findings as the source states them, for the method shown. In cells and extracts the contact can be indirect. Some entries that bind do so weakly or less than the wild type.

What all share (test): co-IP; EGFP-GRP78 fusion as bait co-expressed with the prey in HEK293T/17 for 48 h; lysate in 50 mM HEPES pH 7.4, 150 mM NaCl, 1 mM EGTA, 10% glycerol, 1% Triton X-100; GFP-Trap beads, 4 °C, 1 h; western blot
(A western blot detects proteins with antibodies after separation by electrophoresis.)

Assay [1] deals with EGFP-full length GRP78 T518A (human) (UniProt P11021).
For assay [2], the target named is EGFP-full length GRP78 R470E (human) (UniProt P11021).
Assay [3] has as its target EGFP-full length GRP78 (wild type) (human) (UniProt P11021).
Assay [4] has as its target EGFP-full length GRP78 K585A (human) (UniProt P11021).
In assay [5] the target is EGFP-full length GRP78 R492E (human) (UniProt P11021).
For assay [6], the target named is EGFP-full length GRP78 K621A (human) (UniProt P11021).
Assay [7] addresses EGFP-full length GRP78 V429Q (human) (UniProt P11021).
The target of assay [8] is EGFP-full length GRP78 H477E (human) (UniProt P11021).
For assay [9], the target named is EGFP-NBD (GRP78 nucleotide binding domain with the hydrophobic linker) (human) (UniProt P11021).
Assay [10] concerns the target EGFP-SBD (GRP78 substrate binding domain) (human) (UniProt P11021).

Turning to “ATF6 (activating transcription factor 6), endogenous (from UniProt P18850 1-670)”, the binding entry in [1], in assay [2], in assay [3], in assay [4], in assay [5] and in assay [6] was “binds” throughout. Besides, the binding entry in [7] and in [8] was “binds” each time.

With “ZIKV NS1 protein, full length (pcDNA3.1+_ZIKV NS1) (from UniProt A0A142I5B9 795-1146)”, the binding result is recorded as “binds” in assay [2]; “binds weakly” in [9]; “binds” in assay [3]; “binds” in assay [4]; “binds” in assay [6]; “binds” in assay [7]. Besides, the binding result in assay [8] was “binds”; in assay [10], “binds weakly”.
